From the supplement of paper PMC7661543
The effect of the compound repeats well; differences between the knockouts mostly do not.

Tested on: HCC-38
Test: relative cell number vs DMSO control (72 h) (% of DMSO); higher = less growth inhibition (more cells)
Description: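 QMAP-Seq: a pool of 5 breast cancer cell lines (ZR-75-1, SKBR3, HCC-38, MDA-MB-231, BT-20), each carrying 12 doxycycline-inducible Cas9 sgRNA perturbations (11 knockouts plus non-targeting sgNT), was treated with compounds for 72 h at four 10-fold doses (10 nM-10 uM or 1 nM-1 uM range). Barcodes were amplified and sequenced, and cell number was interpolated from 293T spike-in standard curves. The result is expressed as % of the median of DMSO wells. Two biological replicates.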

CCC[C@H](NC(=O)/C(C#N)=C/c1cccc(Br)n1)c1ccccc1 [WP1130]
Settings | relative cell number
sgRNA knockout: sgATF3, 10 nM | 93.3
sgRNA knockout: sgATF3, 100 nM | 99.2
sgRNA knockout: sgATF3, 1000 nM | 76
sgRNA knockout: sgATF3, 10000 nM | 7.06
sgRNA knockout: sgATF4, 10 nM | 91.3
sgRNA knockout: sgATF4, 100 nM | 106
sgRNA knockout: sgATF4, 1000 nM | 78.4
sgRNA knockout: sgATF4, 10000 nM | 6.4
sgRNA knockout: sgATF6, 10 nM | 101
sgRNA knockout: sgATF6, 100 nM | 109
sgRNA knockout: sgATF6, 1000 nM | 89.8
sgRNA knockout: sgATF6, 10000 nM | 6.39
sgRNA knockout: sgATG7, 10 nM | 91.1
sgRNA knockout: sgATG7, 100 nM | 96.6
sgRNA knockout: sgATG7, 1000 nM | 88.5
sgRNA knockout: sgATG7, 10000 nM | 7.46
sgRNA knockout: sgERN1, 10 nM | 104
sgRNA knockout: sgERN1, 100 nM | 103
sgRNA knockout: sgERN1, 1000 nM | 88.5
sgRNA knockout: sgERN1, 10000 nM | 8.46
sgRNA knockout: sgHSF1, 10 nM | 102
sgRNA knockout: sgHSF1, 100 nM | 80.73
sgRNA knockout: sgHSF1, 1000 nM | 111
sgRNA knockout: sgHSF1, 10000 nM | 6.7
sgRNA knockout: sgHSF2, 10 nM | 102
sgRNA knockout: sgHSF2, 100 nM | 102
sgRNA knockout: sgHSF2, 1000 nM | 96.2
sgRNA knockout: sgHSF2, 10000 nM | 7.74
sgRNA knockout: sgKEAP1, 10 nM | 104
sgRNA knockout: sgKEAP1, 100 nM | 105
sgRNA knockout: sgKEAP1, 1000 nM | 85
sgRNA knockout: sgKEAP1, 10000 nM | 9.25
sgRNA knockout: sgNFE2L2, 10 nM | 84.2
sgRNA knockout: sgNFE2L2, 100 nM | 111
sgRNA knockout: sgNFE2L2, 1000 nM | 80
sgRNA knockout: sgNFE2L2, 10000 nM | 7.1
sgRNA knockout: sgSLC35F2, 10 nM | 87.2
sgRNA knockout: sgSLC35F2, 100 nM | 104
sgRNA knockout: sgSLC35F2, 1000 nM | 83.5
sgRNA knockout: sgSLC35F2, 10000 nM | 6.97
sgRNA knockout: sgXBP1, 10 nM | 87.8
sgRNA knockout: sgXBP1, 100 nM | 112
sgRNA knockout: sgXBP1, 1000 nM | 86.9
sgRNA knockout: sgXBP1, 10000 nM | 7.86

CN(C)/N=N/c1[nH]cnc1C(N)=O [Dacarbazine]
Settings | relative cell number
sgRNA knockout: sgATF3, 10 nM | 93.7
sgRNA knockout: sgATF3, 100 nM | 83.6
sgRNA knockout: sgATF3, 1000 nM | 89.614
sgRNA knockout: sgATF3, 10000 nM | 102
sgRNA knockout: sgATF4, 10 nM | 104
sgRNA knockout: sgATF4, 100 nM | 78.7
sgRNA knockout: sgATF4, 1000 nM | 94.5
sgRNA knockout: sgATF4, 10000 nM | 101
sgRNA knockout: sgATF6, 10 nM | 84.6
sgRNA knockout: sgATF6, 100 nM | 85.5
sgRNA knockout: sgATF6, 1000 nM | 98.4
sgRNA knockout: sgATF6, 10000 nM | 99.9
sgRNA knockout: sgATG7, 10 nM | 95.2
sgRNA knockout: sgATG7, 100 nM | 86.6
sgRNA knockout: sgATG7, 1000 nM | 101.5
sgRNA knockout: sgATG7, 10000 nM | 94.6
sgRNA knockout: sgERN1, 10 nM | 94.7
sgRNA knockout: sgERN1, 100 nM | 94
sgRNA knockout: sgERN1, 1000 nM | 93.7
sgRNA knockout: sgERN1, 10000 nM | 99.1
sgRNA knockout: sgHSF1, 10 nM | 92.5
sgRNA knockout: sgHSF1, 100 nM | 98.9
sgRNA knockout: sgHSF1, 1000 nM | 89.7
sgRNA knockout: sgHSF1, 10000 nM | 89.3
sgRNA knockout: sgHSF2, 10 nM | 103
sgRNA knockout: sgHSF2, 100 nM | 92.9
sgRNA knockout: sgHSF2, 1000 nM | 96.1
sgRNA knockout: sgHSF2, 10000 nM | 83.5
sgRNA knockout: sgKEAP1, 10 nM | 83
sgRNA knockout: sgKEAP1, 100 nM | 96.6
sgRNA knockout: sgKEAP1, 1000 nM | 106.9
sgRNA knockout: sgKEAP1, 10000 nM | 111
sgRNA knockout: sgNFE2L2, 10 nM | 109
sgRNA knockout: sgNFE2L2, 100 nM | 81.2
sgRNA knockout: sgNFE2L2, 1000 nM | 92.2
sgRNA knockout: sgNFE2L2, 10000 nM | 98
sgRNA knockout: sgSLC35F2, 10 nM | 86.2
sgRNA knockout: sgSLC35F2, 100 nM | 87.5
sgRNA knockout: sgSLC35F2, 1000 nM | 94.75
sgRNA knockout: sgSLC35F2, 10000 nM | 100
sgRNA knockout: sgXBP1, 10 nM | 99.75
sgRNA knockout: sgXBP1, 100 nM | 89.4
sgRNA knockout: sgXBP1, 1000 nM | 89.4
sgRNA knockout: sgXBP1, 10000 nM | 98.6

CCNC(=O)c1noc(-c2cc(C(C)C)c(O)cc2O)c1-c1ccc(CN2CCOCC2)cc1 [NVPAUY922]
Settings | relative cell number
sgRNA knockout: sgATF3, 1 nM | 114
sgRNA knockout: sgATF3, 10 nM | 71.1
sgRNA knockout: sgATF3, 100 nM | 28.6
sgRNA knockout: sgATF3, 1000 nM | 28.3
sgRNA knockout: sgATF4, 1 nM | 117
sgRNA knockout: sgATF4, 10 nM | 68.2
sgRNA knockout: sgATF4, 100 nM | 30.6
sgRNA knockout: sgATF4, 1000 nM | 28.4
sgRNA knockout: sgATF6, 1 nM | 120
sgRNA knockout: sgATF6, 10 nM | 73.7
sgRNA knockout: sgATF6, 100 nM | 34.7
sgRNA knockout: sgATF6, 1000 nM | 30.9
sgRNA knockout: sgATG7, 1 nM | 117
sgRNA knockout: sgATG7, 10 nM | 66.3
sgRNA knockout: sgATG7, 100 nM | 30.6
sgRNA knockout: sgATG7, 1000 nM | 27.8
sgRNA knockout: sgERN1, 1 nM | 111
sgRNA knockout: sgERN1, 10 nM | 66.7
sgRNA knockout: sgERN1, 100 nM | 34.6
sgRNA knockout: sgERN1, 1000 nM | 30.2
sgRNA knockout: sgHSF1, 1 nM | 90.6
sgRNA knockout: sgHSF1, 10 nM | 53.4
sgRNA knockout: sgHSF1, 100 nM | 18.5
sgRNA knockout: sgHSF1, 1000 nM | 16.9
sgRNA knockout: sgHSF2, 1 nM | 122
sgRNA knockout: sgHSF2, 10 nM | 73.4
sgRNA knockout: sgHSF2, 100 nM | 32.8
sgRNA knockout: sgHSF2, 1000 nM | 28.6
sgRNA knockout: sgKEAP1, 1 nM | 134
sgRNA knockout: sgKEAP1, 10 nM | 96.2
sgRNA knockout: sgKEAP1, 100 nM | 42
sgRNA knockout: sgKEAP1, 1000 nM | 29.4
sgRNA knockout: sgNFE2L2, 1 nM | 111
sgRNA knockout: sgNFE2L2, 10 nM | 61
sgRNA knockout: sgNFE2L2, 100 nM | 29.7
sgRNA knockout: sgNFE2L2, 1000 nM | 30.4
sgRNA knockout: sgSLC35F2, 1 nM | 105
sgRNA knockout: sgSLC35F2, 10 nM | 73.2
sgRNA knockout: sgSLC35F2, 100 nM | 33.5
sgRNA knockout: sgSLC35F2, 1000 nM | 29
sgRNA knockout: sgXBP1, 1 nM | 121
sgRNA knockout: sgXBP1, 10 nM | 67.2
sgRNA knockout: sgXBP1, 100 nM | 32.4
sgRNA knockout: sgXBP1, 1000 nM | 28.5
